Measured values published in publication PMC7698760 (2020).

Assay: general procedure: solution-phase peptide synthesis; DCC/HOSu (DCC/DMAP for ester bonds)
Settings: late stage modification step, hydrochloride

Boc-Orn(Boc)-Orn-Phe-COOH
step yield: 89.4%
